These are yes or no findings as the source states them, for the method shown. Binding seen in cells or lysates may run through a third protein. Some results given as binding are weak or reduced against the parent protein; the word gives no strength.
Target: T1, NEAT1-31 (micropeptide encoded by LincNEAT1) (human (endogenous in THP1))
T1 sequence: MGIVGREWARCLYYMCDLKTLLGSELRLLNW
Test: co-IP; IP-IB with Neat-31 antibody or Aurora A antibody from cell lysate; 0.3% CHAPS lysis buffer, Protein A/G beads, 4 °C, 8-12 h, washed with PBST; Western blot

binding: binds
B1: Aurora-A (enzyme, UniProt O14965 1-403)
chain: MDRSKENCISGPVKATAPVGGPKRVLVTQQFPCQNPLPVNSGQAQRVLCPSNSSQRIPLQAQKLVSSHKPVQNQKQKQLQATSVPHPVSRPLNNTQKSKQPLPSAPENNPEEELASKQKNEESKKRQWALEDFEIGRPLGKGKFGNVYLAREKQSKFILALKVLFKAQLEKAGVEHQLRREVEIQSHLRHPNILRLYGYFHDATRVYLILEYAPLGTVYRELQKLSKFDEQRTATYITELANALSYCHSKRVIHRDIKPENLLLGSAGELKIADFGWSVHAPSSRRTTLCGTLDYLPPEMIEGRMHDEKVDLWSLGVLCYEFLVGKPPFEANTYQETYKRISRVEFTFPDFVTEGARDLISRLLKHNPSQRPMLREVLEHPWITANSSKPSNCQNKESASKQS
